The list shows a part of the results.
Compound: Cc1cc(ccc1-c1ccccc1)C(=O)N1CCCN(CC1)C(=O)CCl [compound 10]
Assay: probe-labelled cysteine peptide fold change vs DMSO (competition) (log2 fold change); higher = less target engagement (more negative = stronger competition)
Conditions: THP-1, incubation time: 4 h
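Also: competitive profiling in live THP-1 cells: cysteine peptides tagged with an iodoacetamide desthiobiotin (IA-DTB) probe, intensity after compound treatment relative to DMSO-treated cells.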

By UniProt entry, the sequences of proteins in these tests, tags left out. Where a name states a change or a piece, a line headed by the entry shows the natural chain unless it says otherwise.
UniProt Q6NYC8: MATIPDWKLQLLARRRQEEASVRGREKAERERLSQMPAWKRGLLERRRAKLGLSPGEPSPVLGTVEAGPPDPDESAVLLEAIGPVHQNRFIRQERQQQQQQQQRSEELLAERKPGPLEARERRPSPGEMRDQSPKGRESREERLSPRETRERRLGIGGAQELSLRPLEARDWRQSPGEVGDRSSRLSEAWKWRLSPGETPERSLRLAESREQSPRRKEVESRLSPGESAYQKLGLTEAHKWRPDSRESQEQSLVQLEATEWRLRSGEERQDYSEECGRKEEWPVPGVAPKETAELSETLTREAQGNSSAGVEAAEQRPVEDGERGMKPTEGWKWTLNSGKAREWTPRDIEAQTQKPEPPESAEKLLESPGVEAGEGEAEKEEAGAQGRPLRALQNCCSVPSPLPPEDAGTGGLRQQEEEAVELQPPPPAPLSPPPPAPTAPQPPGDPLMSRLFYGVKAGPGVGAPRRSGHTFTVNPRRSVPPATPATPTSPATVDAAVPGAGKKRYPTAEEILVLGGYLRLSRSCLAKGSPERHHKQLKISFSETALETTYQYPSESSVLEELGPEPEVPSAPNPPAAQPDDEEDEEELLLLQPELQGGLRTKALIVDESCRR
UniProt Q5H9R7: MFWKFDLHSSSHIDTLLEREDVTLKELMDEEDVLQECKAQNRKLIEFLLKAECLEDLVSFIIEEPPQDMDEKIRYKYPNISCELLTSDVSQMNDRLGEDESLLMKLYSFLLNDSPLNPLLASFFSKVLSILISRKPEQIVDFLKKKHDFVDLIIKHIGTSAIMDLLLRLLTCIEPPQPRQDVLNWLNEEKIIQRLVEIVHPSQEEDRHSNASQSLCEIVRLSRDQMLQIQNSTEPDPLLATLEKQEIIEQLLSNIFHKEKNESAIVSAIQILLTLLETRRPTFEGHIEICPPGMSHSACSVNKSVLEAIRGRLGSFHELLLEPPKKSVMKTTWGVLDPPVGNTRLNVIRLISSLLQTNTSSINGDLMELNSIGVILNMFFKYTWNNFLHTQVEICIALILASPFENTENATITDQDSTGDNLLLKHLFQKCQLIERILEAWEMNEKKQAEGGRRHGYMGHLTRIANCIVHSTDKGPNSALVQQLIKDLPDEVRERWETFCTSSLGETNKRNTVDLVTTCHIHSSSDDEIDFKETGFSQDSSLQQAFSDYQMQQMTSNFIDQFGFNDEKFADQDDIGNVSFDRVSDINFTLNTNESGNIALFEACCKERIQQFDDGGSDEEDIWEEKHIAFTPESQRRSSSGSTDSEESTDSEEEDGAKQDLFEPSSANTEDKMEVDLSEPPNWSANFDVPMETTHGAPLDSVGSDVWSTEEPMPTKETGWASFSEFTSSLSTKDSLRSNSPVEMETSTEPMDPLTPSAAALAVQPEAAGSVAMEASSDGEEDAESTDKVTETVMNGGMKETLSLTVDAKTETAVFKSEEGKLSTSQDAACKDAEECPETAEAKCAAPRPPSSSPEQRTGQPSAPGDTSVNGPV
UniProt Q13362, whole entry, looked up: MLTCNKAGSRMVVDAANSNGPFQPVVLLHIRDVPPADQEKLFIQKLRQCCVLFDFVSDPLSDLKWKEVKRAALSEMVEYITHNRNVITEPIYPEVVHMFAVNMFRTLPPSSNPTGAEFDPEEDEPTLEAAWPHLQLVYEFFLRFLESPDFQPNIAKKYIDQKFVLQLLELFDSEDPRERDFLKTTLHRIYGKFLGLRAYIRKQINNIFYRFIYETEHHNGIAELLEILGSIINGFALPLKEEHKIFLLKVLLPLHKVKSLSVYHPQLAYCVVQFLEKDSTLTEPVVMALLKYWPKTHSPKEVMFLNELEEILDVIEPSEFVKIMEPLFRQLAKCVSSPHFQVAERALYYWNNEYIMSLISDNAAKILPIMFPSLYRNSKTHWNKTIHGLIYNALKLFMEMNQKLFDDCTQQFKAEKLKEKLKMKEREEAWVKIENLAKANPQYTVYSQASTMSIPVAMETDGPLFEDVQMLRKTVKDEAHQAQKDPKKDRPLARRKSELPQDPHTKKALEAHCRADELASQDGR
UniProt P50336: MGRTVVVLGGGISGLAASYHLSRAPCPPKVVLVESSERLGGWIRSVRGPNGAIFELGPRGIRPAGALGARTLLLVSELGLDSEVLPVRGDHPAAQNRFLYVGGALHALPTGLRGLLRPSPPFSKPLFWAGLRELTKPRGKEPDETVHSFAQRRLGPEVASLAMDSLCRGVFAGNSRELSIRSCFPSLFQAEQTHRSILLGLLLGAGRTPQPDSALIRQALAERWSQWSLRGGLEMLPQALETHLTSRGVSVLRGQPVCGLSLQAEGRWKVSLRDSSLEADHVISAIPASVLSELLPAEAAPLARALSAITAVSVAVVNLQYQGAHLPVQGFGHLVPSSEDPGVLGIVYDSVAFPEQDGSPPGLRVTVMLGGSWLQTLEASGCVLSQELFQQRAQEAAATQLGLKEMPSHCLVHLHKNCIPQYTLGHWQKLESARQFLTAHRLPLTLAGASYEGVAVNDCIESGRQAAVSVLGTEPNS
UniProt P30153, whole entry, looked up: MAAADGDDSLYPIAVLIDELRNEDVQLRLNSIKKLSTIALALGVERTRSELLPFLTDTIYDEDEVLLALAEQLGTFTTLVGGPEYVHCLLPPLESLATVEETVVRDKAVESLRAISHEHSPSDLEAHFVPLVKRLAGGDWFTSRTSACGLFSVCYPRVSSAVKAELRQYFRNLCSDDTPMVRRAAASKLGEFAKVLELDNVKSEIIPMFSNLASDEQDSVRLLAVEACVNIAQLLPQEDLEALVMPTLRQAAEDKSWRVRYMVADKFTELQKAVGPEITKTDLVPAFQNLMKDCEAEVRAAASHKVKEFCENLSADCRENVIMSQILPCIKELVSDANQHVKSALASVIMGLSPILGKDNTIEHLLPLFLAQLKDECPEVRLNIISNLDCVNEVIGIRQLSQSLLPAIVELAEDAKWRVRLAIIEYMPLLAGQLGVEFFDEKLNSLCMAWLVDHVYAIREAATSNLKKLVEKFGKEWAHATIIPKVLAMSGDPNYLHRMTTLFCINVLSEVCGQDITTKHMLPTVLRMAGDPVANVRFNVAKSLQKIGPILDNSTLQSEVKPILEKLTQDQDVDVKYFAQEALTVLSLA
UniProt O43314: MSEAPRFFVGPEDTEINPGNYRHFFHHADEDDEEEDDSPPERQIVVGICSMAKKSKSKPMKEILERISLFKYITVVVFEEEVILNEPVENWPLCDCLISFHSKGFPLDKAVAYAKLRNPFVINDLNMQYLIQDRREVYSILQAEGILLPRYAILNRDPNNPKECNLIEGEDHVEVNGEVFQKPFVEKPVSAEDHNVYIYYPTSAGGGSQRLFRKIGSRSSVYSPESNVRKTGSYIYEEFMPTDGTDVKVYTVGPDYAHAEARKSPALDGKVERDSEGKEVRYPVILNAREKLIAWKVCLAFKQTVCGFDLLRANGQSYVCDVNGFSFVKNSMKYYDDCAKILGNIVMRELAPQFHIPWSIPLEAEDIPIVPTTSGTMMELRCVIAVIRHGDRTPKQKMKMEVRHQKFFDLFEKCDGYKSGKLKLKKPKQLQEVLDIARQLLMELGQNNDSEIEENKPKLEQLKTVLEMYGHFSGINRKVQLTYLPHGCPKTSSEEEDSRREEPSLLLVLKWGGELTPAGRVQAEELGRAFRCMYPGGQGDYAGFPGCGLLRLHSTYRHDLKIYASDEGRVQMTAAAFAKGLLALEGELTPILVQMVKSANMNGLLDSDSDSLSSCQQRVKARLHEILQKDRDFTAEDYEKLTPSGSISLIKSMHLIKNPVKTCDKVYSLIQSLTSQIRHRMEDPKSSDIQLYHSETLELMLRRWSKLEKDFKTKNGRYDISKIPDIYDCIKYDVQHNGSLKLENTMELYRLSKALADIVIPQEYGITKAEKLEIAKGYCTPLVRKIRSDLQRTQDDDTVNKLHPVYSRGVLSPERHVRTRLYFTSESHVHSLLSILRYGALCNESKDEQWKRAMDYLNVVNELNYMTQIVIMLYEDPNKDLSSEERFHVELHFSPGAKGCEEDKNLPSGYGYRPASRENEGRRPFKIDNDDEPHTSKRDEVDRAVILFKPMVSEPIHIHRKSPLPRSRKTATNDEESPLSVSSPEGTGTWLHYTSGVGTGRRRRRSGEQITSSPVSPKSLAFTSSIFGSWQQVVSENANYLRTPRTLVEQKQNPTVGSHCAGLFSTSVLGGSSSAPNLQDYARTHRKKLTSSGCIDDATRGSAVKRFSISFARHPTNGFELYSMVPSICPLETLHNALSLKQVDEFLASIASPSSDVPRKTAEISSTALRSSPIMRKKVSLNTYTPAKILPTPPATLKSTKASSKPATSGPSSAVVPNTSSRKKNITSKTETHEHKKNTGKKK
UniProt P32119: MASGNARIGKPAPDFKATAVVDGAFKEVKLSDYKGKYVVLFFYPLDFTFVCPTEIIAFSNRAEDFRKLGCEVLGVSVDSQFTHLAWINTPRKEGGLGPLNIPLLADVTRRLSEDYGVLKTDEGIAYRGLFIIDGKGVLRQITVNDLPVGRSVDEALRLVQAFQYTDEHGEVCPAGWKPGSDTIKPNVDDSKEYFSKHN
UniProt Q96QH2: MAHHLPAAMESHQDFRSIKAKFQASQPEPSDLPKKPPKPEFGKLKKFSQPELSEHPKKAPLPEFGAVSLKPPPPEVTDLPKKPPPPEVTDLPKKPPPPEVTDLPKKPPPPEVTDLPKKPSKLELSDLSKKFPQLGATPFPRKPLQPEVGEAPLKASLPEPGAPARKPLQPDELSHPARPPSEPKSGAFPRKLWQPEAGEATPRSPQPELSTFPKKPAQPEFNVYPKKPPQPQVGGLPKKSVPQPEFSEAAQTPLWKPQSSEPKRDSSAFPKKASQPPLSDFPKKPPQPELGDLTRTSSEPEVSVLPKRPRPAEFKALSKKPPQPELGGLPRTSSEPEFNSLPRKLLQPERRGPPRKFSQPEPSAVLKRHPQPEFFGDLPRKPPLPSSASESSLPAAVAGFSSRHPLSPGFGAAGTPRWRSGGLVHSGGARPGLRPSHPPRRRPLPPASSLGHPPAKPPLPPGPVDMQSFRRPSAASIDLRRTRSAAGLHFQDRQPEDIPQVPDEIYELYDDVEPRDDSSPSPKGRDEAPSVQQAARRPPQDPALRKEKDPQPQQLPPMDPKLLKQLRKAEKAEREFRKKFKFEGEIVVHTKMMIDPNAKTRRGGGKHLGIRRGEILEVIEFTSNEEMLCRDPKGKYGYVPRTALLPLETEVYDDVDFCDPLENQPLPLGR
UniProt Q4J6C6, whole entry, looked up: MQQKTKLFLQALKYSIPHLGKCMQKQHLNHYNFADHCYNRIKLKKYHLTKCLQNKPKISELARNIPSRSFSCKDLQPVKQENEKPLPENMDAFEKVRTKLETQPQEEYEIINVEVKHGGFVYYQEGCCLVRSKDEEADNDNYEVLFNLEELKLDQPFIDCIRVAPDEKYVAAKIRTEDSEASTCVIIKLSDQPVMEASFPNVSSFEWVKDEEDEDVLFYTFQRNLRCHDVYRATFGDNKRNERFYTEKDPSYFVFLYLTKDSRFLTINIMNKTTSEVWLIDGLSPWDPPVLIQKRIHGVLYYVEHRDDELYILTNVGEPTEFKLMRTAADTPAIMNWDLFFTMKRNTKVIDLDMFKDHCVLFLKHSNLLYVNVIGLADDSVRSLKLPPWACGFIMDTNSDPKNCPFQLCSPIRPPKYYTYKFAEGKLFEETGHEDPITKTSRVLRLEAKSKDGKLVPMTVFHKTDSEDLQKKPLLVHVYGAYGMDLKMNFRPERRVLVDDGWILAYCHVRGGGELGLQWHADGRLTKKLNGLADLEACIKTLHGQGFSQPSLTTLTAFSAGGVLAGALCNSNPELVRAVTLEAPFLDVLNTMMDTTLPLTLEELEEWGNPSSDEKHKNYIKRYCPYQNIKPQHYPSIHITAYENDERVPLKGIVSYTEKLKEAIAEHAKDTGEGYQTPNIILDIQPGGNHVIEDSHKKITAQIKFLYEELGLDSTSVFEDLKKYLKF
UniProt Q86WC6: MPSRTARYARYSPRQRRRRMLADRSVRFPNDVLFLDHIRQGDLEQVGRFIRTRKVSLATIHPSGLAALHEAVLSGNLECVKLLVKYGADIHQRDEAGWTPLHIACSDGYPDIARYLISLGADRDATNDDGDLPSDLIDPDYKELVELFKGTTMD
UniProt Q13162: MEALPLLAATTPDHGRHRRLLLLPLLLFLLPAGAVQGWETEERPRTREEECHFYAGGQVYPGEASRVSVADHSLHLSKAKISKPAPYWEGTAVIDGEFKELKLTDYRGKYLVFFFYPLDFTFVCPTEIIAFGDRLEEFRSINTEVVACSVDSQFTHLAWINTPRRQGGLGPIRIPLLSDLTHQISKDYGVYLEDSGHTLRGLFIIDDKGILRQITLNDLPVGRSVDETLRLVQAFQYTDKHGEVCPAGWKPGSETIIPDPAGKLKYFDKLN

Row | Target | probe-labelled cysteine peptide fold change (10 µM) | probe-labelled cysteine peptide fold change (50 µM)
1 | PPP1R18_Q6NYC8_611_ALIVDESCR (UniProt Q6NYC8) | -0.365 | 0.0294
2 | PPP6R3_Q5H9R7_37_ELMDEEDVLQECK (UniProt Q5H9R7) | -0.174 | -0.125
3 | PPP1CC_P36873_202_PTDVPDQGLLCDLLWSDPDK (UniProt P36873) | -0.228 | 0.286
4 | PPP2R5C_Q13362_49_QCCVLFDFVSDPLSDLK (UniProt Q13362) | 0.0209 | -0.109
5 | PPOX_P50336_258_GQPVCGLSLQAEGR (UniProt P50336) | -0.104 | 0.0901
6 | PPP2R1A_P30153_504+512_MTTLFCINVLSEVCGQDITTK (UniProt P30153) | 0.378 | 0.195
7 | PPP1CA_P62136_202_IMRPTDVPDQGLLCDLLWSDPDKDVQGWGENDR (UniProt P62136) | -0.137 | -0.728
8 | PPP4R1_Q8TF05_198_TEAVAIMCK (UniProt Q8TF05) | 0.224 | 0.0475
9 | PPIP5K2_O43314_298_VCLAFK (UniProt O43314) | 0.00558 | 0.495
10 | PRDX2_P32119_172_LVQAFQYTDEHGEVCPAGWK (UniProt P32119) | -0.113 | 0.251
11 | PRAM1_Q96QH2_629_RGEILEVIEFTSNEEMLCRDPK (UniProt Q96QH2) | -0.0126 | -0.0245
12 | PREPL_Q4J6C6_184_TEDSEASTCVIIK (UniProt Q4J6C6) | 0.111 | 0.235
13 | PPP1R27_Q86WC6_79_VSLATIHPSGLAALHEAVLSGNLECVK (UniProt Q86WC6) | 0.381 | 0.28
14 | PRDX4_Q13162_148_SINTEVVACSVDSQFTHLAWINTPR (UniProt Q13162) | 0.036 | 0.311

Whole records from above:
PPP6R3_Q5H9R7_37_ELMDEEDVLQECK (UniProt Q5H9R7) in the list: probe-labelled cysteine peptide fold change (10 µM): -0.174; probe-labelled cysteine peptide fold change (50 µM): -0.125
PPOX_P50336_258_GQPVCGLSLQAEGR (UniProt P50336) in the list: probe-labelled cysteine peptide fold change (10 µM): -0.104; probe-labelled cysteine peptide fold change (50 µM): 0.0901

From the supplement of paper PMC12067093, “Discovery and optimisation of a covalent ligand for TRIM25 and its application to targeted protein ubiquitination” (Chemical Science, 2025)
